Experimental data published in PMC8786727, “Oligomerization of the FliF Domains Suggests a Coordinated Assembly of the Bacterial Flagellum MS Ring” (Frontiers in Microbiology, 2021).
No constants are given. Whether binding was seen depends on the method and setting.

Amino acid sequences for entries named in this document (tags omitted). Residues count along the entry.
UniProt P15928, residues 50-124: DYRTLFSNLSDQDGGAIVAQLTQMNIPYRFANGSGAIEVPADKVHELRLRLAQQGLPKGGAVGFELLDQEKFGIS

Target: S. Typhimurium FliF RBM1 (FliF_(50–124)) (Salmonella enterica serovar Typhimurium) (UniProt P15928)
Test: SEC; purified protein on Superdex 200 10/300 or Superose 6 10/300; 50 mM Hepes pH 8.0 or 9.0, 500 mM NaCl; oligomeric state from the elution volume; both purified

## S. Typhimurium FliF RBM1 (FliF_(50–124)) (from UniProt P15928 50-124) (domain or fragment)
  binding: no binding
